In article doi:10.1101/2020.10.06.326603 (bioRxiv, 2020):
Results are given in words; binding and its absence hold for the method and conditions named. Some entries that bind do so weakly or less than the wild type.

B1: IscS S10Q, H247P, Q248L variant (enzyme, E. coli)
chain: MKLPIYLDYQATTPVDPRVAEKMMQFMTMDGTFGNPASRSHRFGWQAEEAVDIARNQIADLVGADPREIVFTSGATESDNLAIKGAANFYQKKGKHIITSKTEHKAVLDTCRQLEREGFEVTYLAPQRNGIIDLKELEAAMRDDTILVSIMHVNNEIGVVQDIAAIGEMCRARGIIYHVDATQSVGKLPIDLSQLKVDLMSFSGHKIYGPKGIGALYVRRKPRVRIEAQMHGGGHERGMRSGTLPVPLIVGMGEAYRIAKEEMATEMERLRGLRNRLWNGIKDIEEVYLNGDLEHGAPNILNVSFNYVEGESLIMALKDLAVSSGSACTSASLEPSYVLRALGLNDELAHSSIRFSLGRFTTEEEIDYTIELVRKSIGRLRDLSPLWEMYKQGVDLNSIEWAHH

Target: B1
Test: SEC

Binder: B1
binding: binds weakly
